## Results of single-concentration screens

By UniProt entry, the sequences of proteins in these tests, tags left out.
UniProt P9WPC5, whole entry: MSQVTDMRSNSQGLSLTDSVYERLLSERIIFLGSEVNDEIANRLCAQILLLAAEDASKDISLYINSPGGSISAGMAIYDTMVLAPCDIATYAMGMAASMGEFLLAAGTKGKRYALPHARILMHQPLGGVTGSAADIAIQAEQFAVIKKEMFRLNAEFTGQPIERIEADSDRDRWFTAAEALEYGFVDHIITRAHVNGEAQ
UniProt P9WPC3, whole entry partner: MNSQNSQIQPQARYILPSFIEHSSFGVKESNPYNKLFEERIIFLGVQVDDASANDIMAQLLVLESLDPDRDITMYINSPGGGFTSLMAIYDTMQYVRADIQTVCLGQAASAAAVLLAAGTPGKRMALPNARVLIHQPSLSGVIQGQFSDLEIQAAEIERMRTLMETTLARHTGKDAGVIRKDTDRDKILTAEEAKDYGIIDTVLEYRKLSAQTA

From ChEMBL document CHEMBL3988442, “University of Dundee, Small-Polar-MMV Screening Library” (2021).

Toxoplasma: 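Assay of Toxoplasma gondii numbers, read through their beta-galactosidase reporter with a colour substrate. Concentration: 10 µM. The record gives no direction; the compounds picked for IC50 retests had high values, so higher reads as fewer parasites. Size under these conditions: about 67,000 compounds, about 260 of them at 50% or above in at least one test.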
ClpP1P2: 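Protease assay of ClpP1P2, read by the AMC dye that it sets free. Target: ClpP1P2, Mycobacterium tuberculosis (UniProt P9WPC5 and UniProt P9WPC3). Tested at 50 µM. Direction is inferred from only a few compounds that gave an IC50; most scored high, so higher reads as stronger inhibition. Most other retested compounds had strongly negative values. About 69,000 compounds were tested under these conditions; 0.015% (about 10) showed 50% or more at least once.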

Each number is a percent effect as filed.
The controls that fix the scale are not given in the record; negative values are as filed.
The compounds are a random part of those screened.
A dash means the value is not listed here; it may have been measured.

| Compound | Toxoplasma | ClpP1P2 |
|---|---|---|
| `O=C1N(CCO)CCCC12CCN(Cc1nnc(C3CC3)o1)C2` (stereo unspecified) | 5.578 | 4.632 |
| `CC(C)C[C@@H](N)C(=O)N(C)Cc1csc(C(C)C)n1` | -11.51 | 9.497 |
| `COCC(=O)N1CC[C@@H]2CN(Cc3cccnc3)S(=O)(=O)[C@@H]2CC1` | - | 3.558 |
| `Cc1ccsc1C(O)CNS(=O)(=O)Cc1ccc(F)cc1` (stereo unspecified) | -10.28 | -5.758 |
| `[H][C@@]12CS(=O)(=O)C[C@]1([H])N(C(=O)Cc1ccc(O)c(F)c1)CCN2CC1CC1` | 5.474 | - |
| `COCc1cncc2c1CCN(C(=O)c1ccc(C#N)cc1)C2` | - | -5.076 |
| `CCc1ccc(CNCC2CCN(CCO)CC2)cc1` | -8.414 | -11.01 |
| `Cc1cc(C)n(CC(=O)N2CCC(c3cc4cccnc4[nH]3)CC2)n1` | 8.169 | -7.617 |
| `O=C(NC1CCCCC1)N1C[C@@H]2OCCN(C(=O)c3ccco3)[C@@H]2C1` | - | -8.354 |
| `O=C(CCc1nc2cccnc2[nH]1)NCc1cccnc1` | -2.391 | 13.35 |
| `CC(NC(=O)NCCCOc1ccccc1F)c1nncn1C` (stereo unspecified) | 3.474 | -7.725 |
| `Cc1nc(-c2noc3ccc(C(=O)NCCN4CCOCC4)cc23)co1` | 1.957 | -1.765 |
| `Cc1nnc(N2CC[C@@]3(O)CCNC[C@H]3C2)c2ccccc12` | - | -5.093 |
| `Cc1cccc2[nH]c(C3CCN(C(=O)c4cnc[nH]c4=O)CC3)nc12` | -5.596 | -10.35 |
| `CCOCC(=O)NC(C#N)c1cnn(-c2ccccc2)c1` (stereo unspecified) | -8.934 | -7.004 |
| `CCS(=O)(=O)NCCNc1cc(-n2cccc2)ncn1` | 5.92 | -1.842 |
| `CCOC(=O)CNc1nc(C(C)(C)C)nc2c1cnn2C` | -8.273 | -2.396 |
| `Cc1nc2c(c(N3CCC(O)(CN4CCCC4)CC3)n1)CCN(C)CC2` | 1.028 | -13.06 |
| `CN1Cc2c(C(=O)Nc3cccnc3)ncn2-c2ccccc2S1(=O)=O.O=C(O)C(F)(F)F` | 9.53 | - |
| `COc1ccc(OC)c(C(O)CN2CC(n3cccn3)C2)c1` (stereo unspecified) | -1.553 | 9.774 |
| `COc1nc2ccccc2cc1CN1CCC(CNS(C)(=O)=O)C1` (stereo unspecified) | -2.254 | -17.77 |
| `COCc1ncn2c1CN(C(=O)c1ccc3ccccc3n1)CC2` | - | 3.224 |
| `O=C1[C@@H]2CCN(CC3CC3)C[C@@H]2OCCN1c1cccnc1` | - | 8.105 |
| `CCN(CC)C(C(=O)NCc1ccc(N2CCCC2)nc1)C(C)C` (stereo unspecified) | 0.9765 | 5.251 |
| `CSc1ccccc1NC(=O)N1C[C@@H](N(C)C)[C@H](c2ccc(C)cc2)C1` | -10.74 | -12.3 |
| `CS(=O)(=O)N1CCCC(c2cccc(-c3ccccc3F)n2)C1` (stereo unspecified) | -18.87 | -10.57 |
| `COc1ccc2c(=O)n(CC3CC3)ccc2c1OC` | 0.5196 | 13.97 |
| `CCN(C(=O)CCn1cccn1)C1CC1` | 4.365 | -1.313 |
| `CC(C)NC(=O)c1cc2c([nH]c1=O)CC(c1cccs1)CC2=O` (stereo unspecified) | 5.102 | 4.154 |
| `CCn1cc(CN2CCC(c3ccncc3)CC2)cc1C#N` | 6.145 | 2.243 |
| `COc1cc2ccn(CCCO)c(=O)c2cc1F` | -4.802 | -0.7577 |
| `CC(=O)N1CCCn2nc(CNC(=O)N3CCCCC3)cc2C1` | 17.41 | -8.407 |
| `Cl.[H][C@@]12OCCC[C@]1([H])NC[C@@H]2NC(=O)c1cscn1` | 1.007 | - |
| `COc1ccc(C2CC(=O)Oc3cc(C)[nH]c(=O)c32)cc1O` (stereo unspecified) | 7.08 | -5.67 |
| `Cc1cc(C)c2cc(CNCc3cccnc3)c3nn(C)c(=O)n3c2c1` | 1.196 | -2.238 |
| `O=C(c1cccnc1)N1CCN2C(=O)N(Cc3ccc(F)cc3)C[C@H]2C1` | - | -13.56 |
| `Cc1c(F)cccc1S(=O)(=O)NCCN.Cl` | -4.162 | - |
| `COc1ccccc1C(=O)N1CCNCC1C(N)=O` (stereo unspecified) | - | -1.938 |
| `O=C(NC1CCN(c2ncccn2)CC1)c1cccc(-n2ccnc2)c1` | 3.977 | 0.3999 |
| `O=C(NCc1nn(-c2ccccc2)c2c1CCC2)N1CCCC(O)C1` (stereo unspecified) | -28.68 | -41.08 |
| `O=c1ccc(S(=O)(=O)N2CCCC2)cn1CC1CCCCO1` (stereo unspecified) | -14.57 | -8.205 |
| `CN(C)c1ncc(-c2cncnc2)c(C2CNCCO2)n1.Cl` (stereo unspecified) | 0.283 | - |
| `[H][C@@]12CN(Cc3cnn(C)c3)C[C@@]1([H])N(Cc1ccncc1)C(=O)CO2` | 11.76 | - |
| `CNC(=O)C1Cn2ccnc2C2(CCN(C(=O)c3ccccn3)CC2)O1` (stereo unspecified) | 16.9 | -8.737 |
| `Cc1nc(CN2CCOCC3(CCN(c4cnccn4)CC3)C2)cs1` | - | 0.2796 |
| `CN(C)c1nc(N)nc(CN2CCCC2c2cccs2)n1` (stereo unspecified) | 12.16 | 8.678 |
| `c1cnnc(N2CCCC2CNCc2ccsc2)c1` (stereo unspecified) | 6.992 | 0.5542 |

Some entries from above, unchanged:

{"compound": "CN1Cc2c(C(=O)Nc3cccnc3)ncn2-c2ccccc2S1(=O)=O.O=C(O)C(F)(F)F", "Toxoplasma": 9.53}
{"compound": "O=C(NC1CCCCC1)N1C[C@@H]2OCCN(C(=O)c3ccco3)[C@@H]2C1", "ClpP1P2": -8.354}
{"compound": "Cc1c(F)cccc1S(=O)(=O)NCCN.Cl", "Toxoplasma": -4.162}
{"compound": "CC(=O)N1CCCn2nc(CNC(=O)N3CCCCC3)cc2C1", "Toxoplasma": 17.41, "ClpP1P2": -8.407}
{"compound": "COCc1cncc2c1CCN(C(=O)c1ccc(C#N)cc1)C2", "ClpP1P2": -5.076}